Reference: article doi:10.1101/2024.09.04.611121
No constants are given. Whether binding was seen depends on the method and setting. Binding seen in cells or lysates may run through a third protein.

Chains of the proteins cited; added tags and fusions are not shown.
UniProt Q92973: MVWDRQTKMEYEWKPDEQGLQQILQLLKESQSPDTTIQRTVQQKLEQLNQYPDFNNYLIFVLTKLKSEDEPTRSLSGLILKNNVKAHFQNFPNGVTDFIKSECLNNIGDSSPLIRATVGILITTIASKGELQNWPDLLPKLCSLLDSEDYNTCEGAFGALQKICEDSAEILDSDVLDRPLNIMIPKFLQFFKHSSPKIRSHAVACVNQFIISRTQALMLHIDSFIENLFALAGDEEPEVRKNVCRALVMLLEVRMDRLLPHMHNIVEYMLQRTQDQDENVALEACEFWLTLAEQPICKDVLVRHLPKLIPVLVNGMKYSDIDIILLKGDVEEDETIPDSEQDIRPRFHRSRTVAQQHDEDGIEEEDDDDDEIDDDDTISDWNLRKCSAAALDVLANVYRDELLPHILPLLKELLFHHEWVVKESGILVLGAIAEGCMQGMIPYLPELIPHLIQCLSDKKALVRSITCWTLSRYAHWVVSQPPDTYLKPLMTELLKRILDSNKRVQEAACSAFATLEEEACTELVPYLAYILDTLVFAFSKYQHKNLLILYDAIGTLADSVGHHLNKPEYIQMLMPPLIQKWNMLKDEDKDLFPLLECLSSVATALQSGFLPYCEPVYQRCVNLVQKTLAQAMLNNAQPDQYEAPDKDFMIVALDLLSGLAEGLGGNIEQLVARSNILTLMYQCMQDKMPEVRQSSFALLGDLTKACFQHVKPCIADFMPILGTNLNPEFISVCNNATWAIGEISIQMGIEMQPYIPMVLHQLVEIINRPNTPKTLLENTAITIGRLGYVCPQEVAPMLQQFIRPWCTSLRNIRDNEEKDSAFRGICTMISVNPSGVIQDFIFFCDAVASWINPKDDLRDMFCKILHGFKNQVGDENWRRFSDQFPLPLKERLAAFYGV

Target: TDP-43 (TAR DNA/RNA-binding protein 43 kDa), endogenous (human (endogenous in iPSC-derived cortical neurons)) (UniProt Q13148)
Assay: co-IP

binding: no binding
Substance: importin-β2, endogenous (iPSC-derived cortical neurons) (from UniProt Q92973 1-898)
